Experimental data from publication PMC12569825.
No constants are given. Whether binding was seen depends on the method and setting. In cells and extracts the contact can be indirect. Some entries that bind do so weakly or less than the wild type.

Chains of the proteins cited; added tags and fusions are not shown. Lines headed by an entry give the natural chain unless they say otherwise; changes in a name come on top. A line that says so, or that is headed by a name, gives the form on record, which may keep a tag or linker.
UniProt Q96PU5: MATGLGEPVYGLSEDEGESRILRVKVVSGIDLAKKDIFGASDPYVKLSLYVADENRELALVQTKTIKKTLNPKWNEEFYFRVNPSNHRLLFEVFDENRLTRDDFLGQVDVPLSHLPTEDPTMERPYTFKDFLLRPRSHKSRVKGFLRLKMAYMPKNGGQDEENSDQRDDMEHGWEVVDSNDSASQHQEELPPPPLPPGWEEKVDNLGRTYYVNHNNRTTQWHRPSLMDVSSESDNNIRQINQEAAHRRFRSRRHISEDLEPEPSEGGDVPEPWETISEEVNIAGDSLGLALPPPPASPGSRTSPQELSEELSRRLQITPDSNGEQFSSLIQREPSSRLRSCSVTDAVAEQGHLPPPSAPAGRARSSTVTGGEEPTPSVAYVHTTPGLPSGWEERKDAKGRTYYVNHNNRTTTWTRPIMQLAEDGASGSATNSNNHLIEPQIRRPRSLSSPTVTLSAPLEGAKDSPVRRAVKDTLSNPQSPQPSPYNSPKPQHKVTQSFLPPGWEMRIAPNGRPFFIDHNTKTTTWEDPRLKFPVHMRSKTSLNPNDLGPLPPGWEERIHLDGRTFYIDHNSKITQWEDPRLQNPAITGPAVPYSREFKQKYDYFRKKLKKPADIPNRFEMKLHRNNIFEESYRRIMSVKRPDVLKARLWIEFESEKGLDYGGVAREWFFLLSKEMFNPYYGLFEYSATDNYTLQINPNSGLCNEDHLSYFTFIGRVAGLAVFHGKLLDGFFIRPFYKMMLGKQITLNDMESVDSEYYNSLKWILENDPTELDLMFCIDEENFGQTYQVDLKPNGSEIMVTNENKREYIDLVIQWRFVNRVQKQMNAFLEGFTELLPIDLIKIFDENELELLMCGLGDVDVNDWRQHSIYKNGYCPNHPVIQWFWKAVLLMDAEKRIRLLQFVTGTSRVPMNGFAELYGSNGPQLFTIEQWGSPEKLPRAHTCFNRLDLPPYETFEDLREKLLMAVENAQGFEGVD
UniProt Q6XZF7: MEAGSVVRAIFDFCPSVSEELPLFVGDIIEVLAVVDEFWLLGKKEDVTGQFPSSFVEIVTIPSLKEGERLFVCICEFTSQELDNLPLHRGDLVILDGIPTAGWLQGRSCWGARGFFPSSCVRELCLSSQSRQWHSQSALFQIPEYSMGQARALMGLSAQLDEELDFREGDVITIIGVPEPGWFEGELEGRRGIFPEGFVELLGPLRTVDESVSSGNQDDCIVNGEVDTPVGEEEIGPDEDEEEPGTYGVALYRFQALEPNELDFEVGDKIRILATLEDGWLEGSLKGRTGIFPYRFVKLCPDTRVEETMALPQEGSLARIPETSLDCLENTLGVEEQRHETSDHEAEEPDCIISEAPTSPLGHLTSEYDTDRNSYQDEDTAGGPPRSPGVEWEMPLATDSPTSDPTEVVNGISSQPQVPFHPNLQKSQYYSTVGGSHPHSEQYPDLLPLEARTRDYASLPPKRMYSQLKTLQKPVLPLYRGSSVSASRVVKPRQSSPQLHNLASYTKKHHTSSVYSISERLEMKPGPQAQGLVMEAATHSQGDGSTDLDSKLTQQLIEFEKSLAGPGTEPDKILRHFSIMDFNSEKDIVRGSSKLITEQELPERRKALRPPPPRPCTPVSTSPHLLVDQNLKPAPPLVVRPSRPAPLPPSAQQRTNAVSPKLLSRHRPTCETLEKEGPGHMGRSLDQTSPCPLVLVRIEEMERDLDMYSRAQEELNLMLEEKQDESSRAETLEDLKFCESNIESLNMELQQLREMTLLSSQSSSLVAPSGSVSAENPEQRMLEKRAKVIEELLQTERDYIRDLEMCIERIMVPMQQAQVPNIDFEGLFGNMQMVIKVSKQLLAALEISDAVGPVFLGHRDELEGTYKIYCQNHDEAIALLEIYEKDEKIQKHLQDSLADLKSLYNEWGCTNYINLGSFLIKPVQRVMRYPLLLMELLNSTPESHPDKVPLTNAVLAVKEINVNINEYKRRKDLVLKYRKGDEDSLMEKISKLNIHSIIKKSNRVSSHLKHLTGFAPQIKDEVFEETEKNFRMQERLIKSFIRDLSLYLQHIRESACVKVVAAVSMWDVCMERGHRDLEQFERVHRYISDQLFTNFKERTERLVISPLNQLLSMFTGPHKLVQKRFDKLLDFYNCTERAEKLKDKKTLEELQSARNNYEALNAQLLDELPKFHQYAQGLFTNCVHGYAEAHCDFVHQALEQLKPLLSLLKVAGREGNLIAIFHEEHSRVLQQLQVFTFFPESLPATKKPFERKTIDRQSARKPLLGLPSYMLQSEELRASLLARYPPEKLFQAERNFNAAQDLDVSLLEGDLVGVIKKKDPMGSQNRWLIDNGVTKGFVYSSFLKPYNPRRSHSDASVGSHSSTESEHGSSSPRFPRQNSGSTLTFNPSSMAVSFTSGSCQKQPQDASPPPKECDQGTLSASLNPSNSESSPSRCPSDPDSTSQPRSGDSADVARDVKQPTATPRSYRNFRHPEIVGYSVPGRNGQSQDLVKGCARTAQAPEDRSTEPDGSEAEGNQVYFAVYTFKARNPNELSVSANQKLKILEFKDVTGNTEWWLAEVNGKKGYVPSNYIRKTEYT
HA-DNMBP 3ΔPY (triple PY motif mutant) (Q6XZF7, form named): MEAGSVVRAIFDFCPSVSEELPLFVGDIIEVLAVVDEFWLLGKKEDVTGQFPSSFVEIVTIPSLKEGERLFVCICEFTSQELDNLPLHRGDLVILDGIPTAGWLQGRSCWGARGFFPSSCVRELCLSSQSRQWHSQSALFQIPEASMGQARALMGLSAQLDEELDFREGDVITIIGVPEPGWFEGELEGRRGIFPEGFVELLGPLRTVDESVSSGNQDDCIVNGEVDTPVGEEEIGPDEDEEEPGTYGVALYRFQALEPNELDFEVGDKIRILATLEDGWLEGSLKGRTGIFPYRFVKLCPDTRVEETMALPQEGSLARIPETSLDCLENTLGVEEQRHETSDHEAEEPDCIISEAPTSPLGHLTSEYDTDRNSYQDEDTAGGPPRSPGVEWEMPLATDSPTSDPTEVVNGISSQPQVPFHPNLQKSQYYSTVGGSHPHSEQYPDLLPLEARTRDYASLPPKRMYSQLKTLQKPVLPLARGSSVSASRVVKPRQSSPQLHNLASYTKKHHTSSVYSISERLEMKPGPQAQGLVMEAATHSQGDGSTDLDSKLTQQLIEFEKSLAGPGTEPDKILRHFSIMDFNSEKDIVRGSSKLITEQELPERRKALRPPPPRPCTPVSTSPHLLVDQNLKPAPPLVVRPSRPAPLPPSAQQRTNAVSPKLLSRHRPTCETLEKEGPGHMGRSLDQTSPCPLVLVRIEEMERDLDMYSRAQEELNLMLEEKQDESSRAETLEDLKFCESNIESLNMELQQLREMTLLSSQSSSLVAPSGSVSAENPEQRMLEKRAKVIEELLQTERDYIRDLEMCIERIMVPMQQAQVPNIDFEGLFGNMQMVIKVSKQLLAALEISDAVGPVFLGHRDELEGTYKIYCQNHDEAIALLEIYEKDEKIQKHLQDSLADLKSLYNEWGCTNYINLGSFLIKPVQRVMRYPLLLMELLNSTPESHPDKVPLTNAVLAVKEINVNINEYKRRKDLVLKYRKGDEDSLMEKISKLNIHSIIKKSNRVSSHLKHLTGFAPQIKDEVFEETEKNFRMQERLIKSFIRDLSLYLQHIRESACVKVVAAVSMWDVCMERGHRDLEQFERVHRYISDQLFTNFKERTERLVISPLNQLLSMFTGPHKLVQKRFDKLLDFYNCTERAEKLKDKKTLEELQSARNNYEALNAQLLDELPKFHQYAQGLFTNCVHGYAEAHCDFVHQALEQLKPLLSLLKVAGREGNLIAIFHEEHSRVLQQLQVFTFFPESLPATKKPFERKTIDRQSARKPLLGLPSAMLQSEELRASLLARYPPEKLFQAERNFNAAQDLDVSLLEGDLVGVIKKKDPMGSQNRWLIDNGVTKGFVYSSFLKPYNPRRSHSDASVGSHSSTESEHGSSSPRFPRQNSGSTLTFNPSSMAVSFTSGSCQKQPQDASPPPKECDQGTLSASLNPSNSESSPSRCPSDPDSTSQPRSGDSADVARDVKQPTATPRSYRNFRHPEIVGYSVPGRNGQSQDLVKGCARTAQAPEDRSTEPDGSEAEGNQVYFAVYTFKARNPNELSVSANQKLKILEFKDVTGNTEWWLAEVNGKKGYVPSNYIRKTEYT

Target: V5-tagged Nedd4-2 (WT) (UniProt Q96PU5)
Experiment: co-IP; HEK293T or HeLa cells transfected 2 days, iso- or hyper-osmotic medium (600 mOSM) for 15 min; 1 mg cleared lysate (1% Triton X-100, 150 mM NaCl, Hepes pH 7.5); Nedd4-2 immunoprecipitated with anti-V5 affinity beads, DNMBP detected by immunoblot for HA or DNMBP

binding | Substance
binds | HA-tagged Dynamin Binding Protein (DNMBP) (from UniProt Q6XZF7 1-1577)
binds | endogenous Dynamin Binding Protein (DNMBP) (from UniProt Q6XZF7 1-1577)
binds weakly | HA-DNMBP 3ΔPY (triple PY motif mutant) (from UniProt Q6XZF7 1-1577)
binds | HA-DNMBP Y1269A (from UniProt Q6XZF7 1-1577)
binds | HA-DNMBP Y479A (from UniProt Q6XZF7 1-1577)
binds | HA-DNMBP Y145A (from UniProt Q6XZF7 1-1577)
